Measured values reported in PubChem BioAssay AID2685 (National Center for Advancing Translational Sciences (NCATS), 2010).
The campaign covered roughly 320,000 compounds. About 2,100 (0.66%) were called active. This list was built around the results that the source calls inconclusive (neither active nor inactive); the mix of calls is not that of the screen. The call rests on the fitted dose curve; in most records, active means well fitted inhibition curve with a large enough effect in the signal ratio, with a control signal flat (not every such curve was filed as active); inconclusive means small, poorly fitted or top-dose-only effect, or effect the other way, or a change in a side signal; inactive means flat fitted curve, though single readings scatter; the % refers to the signal ratio. Potencies beside an inconclusive call are fits to weak or partial responses and may not hold up.

Assay: qHTS Assay for Lipid Storage Modulators in Drosophila S3 Cells
Conditions: BODIPY lipid droplet fluorescence, 18-24 h, cells fed with added oleic acid; lipid storage change, negative = inhibition: at 46.1 µM (top of the series) unless noted
Procedure, shortened: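 Drosophila S3 cells loaded with oleic acid (400 uM, as added) and compounds at several concentrations; lipid droplets imaged by 488-nm laser-scanning cytometry, 500–530 nm intensity and object ratio to cell channel. Percent activity normalized to 20 uM Triacsin C.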
On the % scale 0 is the no-effect control and ±100 the full control effect; potency means the concentration at half of the fitted maximal effect.

SMILES	lipid storage change, negative = inhibition	Potency	outcome
COC(=O)c1sccc1Oc1ccc(Cl)cc1N1C(=O)CCC1=O	inconclusive: 8.25%	–	–
COc1ccccc1CNC(=O)CN(C)S(=O)(=O)c1ccc2c(c1)c(=O)n(C)c(=O)n2C	–	active: 9.2 µM	–
Cc1ccc(-c2nc3ccccc3[nH]2)cc1NC(=O)/C=C/c1ccco1	inconclusive: -24%	–	–
CCOC(=O)N1CCN(C(=O)C2CCCN(S(=O)(=O)c3c(C)cc(C)cc3C)C2)CC1 (configuration not stated)	inconclusive: -100%	–	–
O=C(c1ccc(CS(=O)c2ccc(F)cc2)o1)N1CCN(C2CCCCC2)CC1 (configuration not stated)	–	inconclusive: 6.51 µM [activator, single point]	–
Cc1nc(SC(C)C(=O)c2c(N)n(C)c(=O)n(C)c2=O)c2c(C)c(C)sc2n1 (configuration not stated)	–	inconclusive: 1.84 µM [rising, full curve]	–
O=C(Nc1ccccc1-c1ccccc1)C1CCC1	inconclusive: 0.645% [at 9.22 µM]	–	–
COc1ccccc1NC(=O)COc1ccc2ccccc2c1	–	inconclusive: 29.1 µM [falling, single point]	–
C/C(=C\c1ccccc1)CN1CCN(C)CC1	–	inconclusive: 29.1 µM [rising, single point]	–
CN(C)S(=O)(=O)c1cccc(C(=O)Nc2ccccc2N2CCCCC2)c1	inconclusive: -17.9%	–	–
Cc1ccc([N+](=O)[O-])cc1NC(=O)CCc1ccccc1	inconclusive: -11.5%	–	–
CC(=O)Nc1ccc(NC(=O)C(C)OC(=O)C2CCN(S(=O)(=O)c3ccccc3C(F)(F)F)CC2)cc1 (configuration not stated)	inconclusive: -7.58%	–	–
CCCCN(C(=O)CSCC(=O)Nc1cccc(C)c1)c1c(N)n(Cc2ccccc2)c(=O)[nH]c1=O	–	inconclusive: 16.4 µM [activator, partial curve]	–
COc1cc2nc(CN3C(=O)c4ccccc4C3=O)oc(=O)c2cc1OC	inconclusive: -42.7%	–	–
S=C(NCc1ccc2[nH]c3c(c2c1)CCCC3)Nc1ccccc1	inconclusive: -11.3%	–	–
O=C(NCc1ccccc1Cl)C1CC(=O)N(Cc2ccccc2)C1 (configuration not stated)	inconclusive: -20.5%	–	–
O=C(/C=C/c1ccco1)NC(=S)Nc1ccccc1O	inconclusive: 62.5%	–	–
CCCCOc1ccc(N2C(=O)CC(N(O)c3ccccc3)C2=O)cc1 (configuration not stated)	–	inconclusive: 0.116 µM [falling, full curve]	–
CC(=O)c1ccc(OCCCOc2cccc3cccnc23)cc1	–	inconclusive: 29.1 µM [falling, single point]	–
Cc1cccc(-n2ncc3c(N(C)C4CCCCC4)ncnc32)c1	inconclusive: 6.71%	–	–
CN(C)S(=O)(=O)c1ccc(N2C(=O)CC2(/C=C/c2ccccc2)C(=O)NC2CCCC2)cc1 (configuration not stated)	inconclusive: 34.9%	–	–
CC(=O)c1ccc(OCC(O)CN2CCN(Cc3ccccc3)CC2)cc1 (configuration not stated)	–	inconclusive: 7.31 µM [activator, single point]	–
Cn1c(=O)c2c(SCc3cccnc3)nc(C3CC3)nc2n(C)c1=O	inconclusive: -28.2%	–	–
Cc1cc(C(=O)N/N=C/c2ccc([N+](=O)[O-])s2)n[nH]1	–	inconclusive: 7.31 µM [falling, partial curve, poor fit]	–
Cc1ccc(S(=O)(=O)N2CCN(C(=O)CN3CCc4ccccc4C3)CC2)cc1	–	–	inactive [at 46.1 µM]
O=C(O)c1cn(-c2ccccc2)c(=O)c2ccccc12	inconclusive: 10.5%	–	–

SMILES	lipid storage change, negative = inhibition	Potency	outcome
COc1ccc(NC(=O)Cn2c(=O)cnc3ccccc32)cc1S(=O)(=O)N1CCCCC1	inconclusive: 20.1%	–	–
O=C(Nc1ccccn1)c1ccc2c(c1)S(=O)(=O)c1ccccc1C2=O	–	inconclusive: 4.11 µM [activator, single point]	–
C/C(CC1(O)C(=O)N(C)c2ccccc21)=N\O (configuration not stated)	–	inconclusive: 32.6 µM [falling, single point]	–
Cc1ccc(NC(=O)NC2CC(=O)N(c3ccc4c(c3)OCCO4)C2)cc1C (configuration not stated)	inconclusive	–	–
CC(C)c1ccc(N(C)C(=O)Cc2c(C(=O)O)n(C)c3ccccc23)cc1	inconclusive: -18.4%	–	–
CCCC(c1c(C)n(C)n(-c2ccccc2)c1=O)c1c(C)n(C)n(-c2ccccc2)c1=O	–	inconclusive: 23.1 µM [activator, single point]	–
CCc1ccccc1N(CC(=O)NCC1CCCO1)C(=O)CCC(=O)Nc1cc(C)on1 (configuration not stated)	–	active: 25.9 µM	–
Cc1ccc(S(=O)(=O)N(C(=O)c2ccncc2)c2ccc(OC(=O)c3ccncc3)cc2)c(C)c1	–	inconclusive: 0.517 µM [falling, full curve, poor fit]	–
CC(C)CC1C(C#N)=C(N)SC(N)=C1C#N	inconclusive: -8.23%	–	–
CC1CCCN(c2ccc(C(=O)NCC3CCCO3)cn2)C1 (configuration not stated)	inconclusive: 24.4%	–	–
Cc1cc2c(NC(=O)Nc3ccc(C(C)(C)C)cc3)cccc2nn1	inconclusive: -25.5%	–	–
COC(=O)CCc1n[nH]c(=O)[nH]c1=O	–	inconclusive: 0.103 µM [falling, full curve, poor fit]	–
Oc1[nH]c(N=C2N=c3ccccc3=N2)c2ccccc12	inconclusive: -15.1%	–	–
NC1=NC[C@@H](Cc2ccc(O)cc2)N1CCCCC1CCCCC1	inconclusive: -3.26%	–	–
CCN(CC(=O)NCc1ccc(F)cc1)C(=O)c1ccc(COc2ccccc2)cc1	inactive: 7.05%	–	–
O=C(CCNC(=O)c1ccc(Cl)cc1)Nc1ccccc1N1CCCC1	inconclusive	–	–
Cc1c(Cc2ccccc2)c(=O)oc2c(C)c(OC(C)C(=O)NCC3CCC(C(=O)O)CC3)ccc12 (configuration not stated)	–	inconclusive: 0.231 µM [falling, full curve]	–
CCc1ccc2oc(C(=O)NC3CCS(=O)(=O)C3)cc(=O)c2c1 (configuration not stated)	inconclusive: 51.5%	–	–
O=C(Oc1ccc(Br)cc1)c1n[nH]c(=O)c2ccccc12	inconclusive: -66.6%	–	–
C/C(=N\OCC(=O)Nn1c(=O)[nH]c2ccccc2c1=O)c1cccs1	inconclusive: -23.6%	–	–
CC(=O)N(/N=C/c1ccc(C)cc1)c1nc(CCl)cs1	inconclusive: 96.8%	–	–
NC(=O)CC(NC(=O)c1cccc(Br)c1)c1ccc(N2CCC(N3CCCCC3)CC2)c([N+](=O)[O-])c1 (configuration not stated)	inconclusive: -17.8%	–	–
O=[N+]([O-])c1cc(Cl)ccc1NCCc1ccccn1	inconclusive: -79.1%	–	–
COC(=O)c1ccc(NC(C)=O)o1	inconclusive: 4.37%	–	–
Cc1ccc(-n2c(C)cc(/C=N/Nc3ccc([N+](=O)[O-])cn3)c2C)cc1	–	inconclusive: 0.0052 µM [falling, full curve]	–
COc1ccccc1N1CCN(/N=C/c2cccc(OC)c2OC)CC1	inconclusive: -12%	–	–

Among those listed so far, these have an aryl thioether with sulfur outside any ring:
SMILES	lipid storage change, negative = inhibition	Potency	outcome
Cc1nc(SC(C)C(=O)c2c(N)n(C)c(=O)n(C)c2=O)c2c(C)c(C)sc2n1 (configuration not stated)	–	inconclusive: 1.84 µM [rising, full curve]	–
Cn1c(=O)c2c(SCc3cccnc3)nc(C3CC3)nc2n(C)c1=O	inconclusive: -28.2%	–	–

The list continues.

SMILES	lipid storage change, negative = inhibition	Potency	outcome
CCOc1ccc(NS(=O)(=O)c2ccc(C(=O)NCc3cccnc3)cc2)cc1	–	inconclusive: 0.259 µM [falling, partial curve, poor fit]	–
CC(Sc1n[nH]c(N)n1)C(=O)Nc1cccc2ccccc12 (configuration not stated)	inconclusive: -27.5%	–	–
CC12CCC(C(=O)N(CSC(=S)N/N=C\c3ccccc3O)C1=O)C2(C)C (configuration not stated)	–	inconclusive: 14.6 µM [falling, partial curve]	–
CC1CCC(NC(=O)c2ccc(NC(=O)CC3SC(N4CCCC4)=NC3=O)cc2)CC1 (configuration not stated)	–	inconclusive: 0.0052 µM [rising, full curve, poor fit]	–
O=C(CCc1ccccc1)n1nc(-c2ccco2)nc1SCc1ccccc1	–	inconclusive: 29.1 µM [rising, single point]	–
COC(=O)C1=C(N)Oc2cc(C)n(Cc3cccnc3)c(=O)c2C1c1ccccc1OC (configuration not stated)	inconclusive: 26.6%	–	–
CCC(=O)Nc1cccc(Oc2nc(C)cc(C)c2C#N)c1	inconclusive: -10%	–	–
O=C(Nc1nc2ccccc2s1)NC1CCCCC1	inconclusive: -13.2%	–	–
COc1ccc(-c2cc(C(=O)NCCN3CCOCC3)no2)cc1OC	–	inconclusive: 11.6 µM [falling, single point]	–
Cc1ccc(NC(=O)C(Cc2ccccc2)N2C(=O)C3C4CCC(C4)C3C2=O)cc1Cl (configuration not stated)	–	inconclusive: 7.31 µM [falling, partial curve, poor fit]	–
COc1ccc(C(=O)CC2OC(=O)c3c2ccc(OC)c3OC)cc1 (configuration not stated)	inconclusive: -2.64%	–	–
CN1CCN(Cc2c(C#N)c3ccccc3n2C)CC1	–	inconclusive: 4.11 µM [falling, single point]	–
C=CCn1c(-c2cccc(OC)c2OC)n[nH]c1=S	inactive: 16.6% [at 9.22 µM]	–	–
COCCCNC(=O)Nc1ccc(F)cc1F	inconclusive: -16.1%	–	–
CN(Cc1ccc(OCC(O)CN2CCCCC2)cc1)Cc1ccnc2ccccc12 (configuration not stated)	–	inconclusive: 14.6 µM [cytotoxic, partial curve]	–
CCc1ccccc1Oc1coc2cc(O)ccc2c1=O	inconclusive: -18.3%	–	–
O=C(N/N=C/c1c[nH]c2ccc(Br)cc12)c1ccn(Cc2ccc(Cl)cc2)n1	inconclusive: -15%	–	–
Cc1ccccc1N1CC(O)(c2ccccc2)[N+]2=C1SCC2 (configuration not stated)	inconclusive: -22.2%	–	–
C=CCN(Cc1nc(-c2ccccc2)no1)C(=O)c1ccoc1C	inactive: -4.28%	–	–
CCOc1ccc(C2C(C(=O)c3ccco3)=C(O)C(=O)N2CCCn2ccnc2)cc1OCC (configuration not stated)	inconclusive: 46.4%	–	–
O=C(CC1NCCc2ccccc21)Nc1ccccc1Cl (configuration not stated)	inconclusive: 30.6%	–	–
O=C(Nc1nccs1)C1C2/C=C\CCCCC21 (configuration not stated)	inconclusive: 15.4%	–	–
Cc1cccc(C(=O)N2c3ccccc3C(=O)OC2c2ccc3c(c2)OCO3)c1 (configuration not stated)	inconclusive: -9.94%	–	–
O=C(COC(=O)C1C2CC3OC(=O)C1C3C2)Nc1cccc(Cl)c1 (configuration not stated)	inconclusive: -8.94%	–	–
CCOC(=O)N1CCN(C(=O)CN(c2ccccc2OC)S(=O)(=O)c2ccc(C)cc2)CC1	–	–	inactive [at 46.1 µM]
